# Some of the results follow.
# B1: Thrombomodulin Lectin (Mus musculus) (protein)
# chain: LSALAKLQPTGSQCVEHECFALFQGPATFLDASQACQRLQGHLMTVRSSVAADVISLLLSQSSMDLGPWIGLQLPQGCDDPVHLGPLRGFQWVTGDNHTSYSRWARPNDQTAPLCGPLCVTVSTATEAAPGEPAWEEKPCETETQGFLCEFYFTASCRVDPIPVREDTKEEEGAGEPPVSPTPGSPTGPPSARPVLDEPRVPITQNPCPPLKECPPCAAPDLEGGPSVFIFPPKIKDVLMISLSPMVTCVVVDVSEDDPDVQISWFVNNVEVHTAQTQTHREDYNSTLRVVSALPIQHQDWMSGKAFACAVNNRALPSPIEKTISKPRGPVRAPQVYVLPPPAEEMTKKEFSLTCMITGFLPAEIAVDWTSNGRTEQNYKNTATVLDSDGSYFMYSKLRVQKSTWERGSLFACSVVHEGLHNHLTTKTISRSLGK
# Tests used:
# Test in all cases: glycan array binding signal (z-score within array); higher = stronger binding
# Details in all cases: glycan notation: IUPAC condensed, linker removed
# [1] = biological target: Fuc(a1-2)Gal6S(b1-3)GlcNAc6S
# In short: (§1)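 The binding signal is a Z-score computed within each array and averaged over linkers. Arrays of the same protein sequence at different concentrations or buffers were also averaged together. Data originate from 3228 arrays in the Consortium for Functional Glycomics database, kept only where the protein sequence was available.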
# Fuc(a1-2)Gal6S(b1-4)Glc = biological target: Fuc(a1-2)Gal6S(b1-4)Glc
# In short: as §1
# [2] = biological target: Fuc(a1-2)Gal6S(b1-4)Glc6S
# In short: as §1
# Fuc(a1-2)[Gal(a1-3)]Gal = biological target: Fuc(a1-2)[Gal(a1-3)]Gal
# In short: as §1
# [3] = biological target: Fuc(a1-2)[Gal(a1-3)]Gal(b1-3)GalNAc
# In short: as §1
# [4] = biological target: Fuc(a1-2)[Gal(a1-3)]Gal(b1-3)GalNAc(b1-3)Gal(a1-4)Gal(b1-4)Glc
# In short: as §1
# [5] = biological target: Fuc(a1-2)[Gal(a1-3)]Gal(b1-3)GlcNAc
# In short: as §1
# [6] = biological target: Fuc(a1-2)[Gal(a1-3)]Gal(b1-3)GlcNAc(b1-2)Man(a1-3)[Fuc(a1-2)[Gal(a1-3)]Gal(b1-3)GlcNAc(b1-2)Man(a1-6)]Man(b1-4)GlcNAc(b1-4)GlcNAc
# In short: as §1
# [7] = biological target: Fuc(a1-2)[Gal(a1-3)]Gal(b1-3)GlcNAc(b1-2)Man(a1-3)[Fuc(a1-2)[Gal(a1-3)]Gal(b1-3)GlcNAc(b1-2)Man(a1-6)]Man(b1-4)GlcNAc(b1-4)[Fuc(a1-6)]GlcNAc
# In short: as §1
# [8] = biological target: Fuc(a1-2)[Gal(a1-3)]Gal(b1-3)GlcNAc(b1-3)GalNAc
# In short: as §1
# [9] = biological target: Fuc(a1-2)[Gal(a1-3)]Gal(b1-3)GlcNAc(b1-6)GalNAc
# In short: as §1
# [10] = biological target: Fuc(a1-2)[Gal(a1-3)]Gal(b1-4)Glc
# In short: as §1
# [11] = biological target: Fuc(a1-2)[Gal(a1-3)]Gal(b1-4)GlcNAc
# In short: as §1
# [12] = biological target: Fuc(a1-2)[Gal(a1-3)]Gal(b1-4)GlcNAc(b1-2)Man
# In short: as §1
# [13] = biological target: Fuc(a1-2)[Gal(a1-3)]Gal(b1-4)GlcNAc(b1-2)Man(a1-3)[Fuc(a1-2)[Gal(a1-3)]Gal(b1-4)GlcNAc(b1-2)Man(a1-6)]Man(b1-4)GlcNAc(b1-4)GlcNAc
# In short: as §1
# [14] = biological target: Fuc(a1-2)[Gal(a1-3)]Gal(b1-4)GlcNAc(b1-2)Man(a1-3)[Fuc(a1-2)[Gal(a1-3)]Gal(b1-4)GlcNAc(b1-2)Man(a1-6)]Man(b1-4)GlcNAc(b1-4)[Fuc(a1-6)]GlcNAc
# In short: as §1
# [15] = biological target: Fuc(a1-2)[Gal(a1-3)]Gal(b1-4)GlcNAc(b1-3)GalNAc
# In short: as §1
# [16] = biological target: Fuc(a1-2)[Gal(a1-3)]Gal(b1-4)GlcNAc(b1-3)[Fuc(a1-2)[Gal(a1-3)]Gal(b1-4)GlcNAc(b1-6)]GalNAc
# In short: as §1
# [17] = biological target: Fuc(a1-2)[Gal(a1-3)]Gal(b1-4)GlcNAc(b1-6)GalNAc
# In short: as §1
# [18] = biological target: Fuc(a1-2)[Gal(a1-3)]Gal(b1-4)[Fuc(a1-3)]Glc
# In short: as §1
# [19] = biological target: Fuc(a1-2)[Gal(a1-3)]Gal(b1-4)[Fuc(a1-3)]GlcNAc
# In short: as §1
# [20] = biological target: Fuc(a1-2)[Gal(a1-3)]Gal(b1-4)[Fuc(a1-3)]GlcNAc(b1-3)GalNAc
# In short: as §1
# [21] = biological target: Fuc(a1-2)[Gal(a1-4)]Gal(b1-4)GlcNAc
# In short: as §1
# [22] = biological target: Fuc(a1-2)[GalNAc(a1-3)]Gal
# In short: as §1
# [23] = biological target: Fuc(a1-2)[GalNAc(a1-3)]Gal(b1-3)GalNAc(a1-3)[Fuc(a1-2)]Gal(b1-4)GlcNAc
# In short: as §1
# [24] = biological target: Fuc(a1-2)[GalNAc(a1-3)]Gal(b1-3)GalNAc(b1-3)Gal(a1-4)Gal(b1-4)Glc
# In short: as §1
# [25] = biological target: Fuc(a1-2)[GalNAc(a1-3)]Gal(b1-3)GlcNAc
# In short: as §1
# [26] = biological target: Fuc(a1-2)[GalNAc(a1-3)]Gal(b1-3)GlcNAc(b1-2)Man(a1-3)[Fuc(a1-2)[GalNAc(a1-3)]Gal(b1-3)GlcNAc(b1-2)Man(a1-6)]Man(b1-4)GlcNAc(b1-4)GlcNAc
# In short: as §1
# [27] = biological target: Fuc(a1-2)[GalNAc(a1-3)]Gal(b1-3)GlcNAc(b1-2)Man(a1-3)[Fuc(a1-2)[GalNAc(a1-3)]Gal(b1-3)GlcNAc(b1-2)Man(a1-6)]Man(b1-4)GlcNAc(b1-4)[Fuc(a1-6)]GlcNAc
# In short: as §1
# [28] = biological target: Fuc(a1-2)[GalNAc(a1-3)]Gal(b1-3)GlcNAc(b1-3)GalNAc
# In short: as §1
# [29] = biological target: Fuc(a1-2)[GalNAc(a1-3)]Gal(b1-3)GlcNAc(b1-6)GalNAc
# In short: as §1
# [30] = biological target: Fuc(a1-2)[GalNAc(a1-3)]Gal(b1-4)Glc
# In short: as §1
# [31] = biological target: Fuc(a1-2)[GalNAc(a1-3)]Gal(b1-4)GlcNAc
# In short: as §1
# [32] = biological target: Fuc(a1-2)[GalNAc(a1-3)]Gal(b1-4)GlcNAc(b1-2)Man
# In short: as §1
# [33] = biological target: Fuc(a1-2)[GalNAc(a1-3)]Gal(b1-4)GlcNAc(b1-2)Man(a1-3)[Fuc(a1-2)[GalNAc(a1-3)]Gal(b1-4)GlcNAc(b1-2)Man(a1-6)]Man(b1-4)GlcNAc(b1-4)GlcNAc
# In short: as §1
# [34] = biological target: Fuc(a1-2)[GalNAc(a1-3)]Gal(b1-4)GlcNAc(b1-2)Man(a1-3)[Fuc(a1-2)[GalNAc(a1-3)]Gal(b1-4)GlcNAc(b1-2)Man(a1-6)]Man(b1-4)GlcNAc(b1-4)[Fuc(a1-6)]GlcNAc
# In short: as §1
# [35] = biological target: Fuc(a1-2)[GalNAc(a1-3)]Gal(b1-4)GlcNAc(b1-3)Gal(b1-4)GlcNAc
# In short: as §1
# [36] = biological target: Fuc(a1-2)[GalNAc(a1-3)]Gal(b1-4)GlcNAc(b1-3)Gal(b1-4)GlcNAc(b1-3)Gal(b1-4)GlcNAc
# In short: as §1
# [37] = biological target: Fuc(a1-2)[GalNAc(a1-3)]Gal(b1-4)GlcNAc(b1-3)GalNAc
# In short: as §1
# [38] = biological target: Fuc(a1-2)[GalNAc(a1-3)]Gal(b1-4)GlcNAc(b1-3)[Fuc(a1-2)[GalNAc(a1-3)]Gal(b1-4)GlcNAc(b1-6)]GalNAc
# In short: as §1
# [39] = biological target: Fuc(a1-2)[GalNAc(a1-3)]Gal(b1-4)GlcNAc(b1-6)GalNAc
# In short: as §1
# [40] = biological target: Fuc(a1-2)[GalNAc(a1-3)]Gal(b1-4)[Fuc(a1-3)]GlcNAc
# In short: as §1
# [41] = biological target: Fuc(a1-2)[GalNAc(a1-3)]Gal(b1-4)[Fuc(a1-3)]GlcNAc(b1-3)GalNAc
# In short: as §1
# [42] = biological target: Fuc(a1-2)[GalNAc(a1-4)]Gal(b1-4)GlcNAc
# In short: as §1
# [43] = biological target: Fuc(a1-2)[GalNAc(b1-3)]Gal
# In short: as §1
binder,measurement,setting,value
B1,glycan array binding signal (z-score),[1],-0.86
same,glycan array binding signal (z-score),Fuc(a1-2)Gal6S(b1-4)Glc,2.72
same,glycan array binding signal (z-score),[2],0.784
same,glycan array binding signal (z-score),Fuc(a1-2)[Gal(a1-3)]Gal,0.488
same,glycan array binding signal (z-score),[3],-0.173
same,glycan array binding signal (z-score),[4],-0.478
same,glycan array binding signal (z-score),[5],-0.404
same,glycan array binding signal (z-score),[6],0.47
same,glycan array binding signal (z-score),[7],-1.37
same,glycan array binding signal (z-score),[8],-0.81
same,glycan array binding signal (z-score),[9],-0.295
same,glycan array binding signal (z-score),[10],-0.478
same,glycan array binding signal (z-score),[11],0.146
same,glycan array binding signal (z-score),[12],-2.18
same,glycan array binding signal (z-score),[13],2.81
same,glycan array binding signal (z-score),[14],1.31
same,glycan array binding signal (z-score),[15],-0.998
same,glycan array binding signal (z-score),[16],2.22
same,glycan array binding signal (z-score),[17],0.082
same,glycan array binding signal (z-score),[18],1.42
same,glycan array binding signal (z-score),[19],-0.372
same,glycan array binding signal (z-score),[20],-1.59
same,glycan array binding signal (z-score),[21],0.651
same,glycan array binding signal (z-score),[22],0.693
same,glycan array binding signal (z-score),[23],-0.048
same,glycan array binding signal (z-score),[24],0.138
same,glycan array binding signal (z-score),[25],1.61
same,glycan array binding signal (z-score),[26],-0.169
same,glycan array binding signal (z-score),[27],-0.612
same,glycan array binding signal (z-score),[28],0.96
same,glycan array binding signal (z-score),[29],-1.94
same,glycan array binding signal (z-score),[30],-0.508
same,glycan array binding signal (z-score),[31],-1.21
same,glycan array binding signal (z-score),[32],-0.226
same,glycan array binding signal (z-score),[33],0.56
same,glycan array binding signal (z-score),[34],1.21
same,glycan array binding signal (z-score),[35],-1.04
same,glycan array binding signal (z-score),[36],1.48
same,glycan array binding signal (z-score),[37],-0.216
same,glycan array binding signal (z-score),[38],0.514
same,glycan array binding signal (z-score),[39],-0.968
same,glycan array binding signal (z-score),[40],-0.327
same,glycan array binding signal (z-score),[41],1.49
same,glycan array binding signal (z-score),[42],0.779
same,glycan array binding signal (z-score),[43],-0.47

# An excerpt of these results, as tab-separated lines.
binder	measurement	setting	value
B1	glycan array binding signal (z-score)	[17]	0.082
same	glycan array binding signal (z-score)	[26]	-0.169

# From the supplement of paper PMC8728848
